Values joined by “and” are separate entries in the source; they are usually repeats but may differ in a detail not shown here. Equal values may be shown once. Hit rate of the full screen: of about 580,000 compounds, about 6,100 (1.1%) were called active. The inconclusive results got no clear call from the source; some entries with a clear call stand among them for comparison. Calls come from the whole dose curve; as a rule, active = well fitted inhibition curve with a large enough effect; inconclusive = small, poorly fitted or top-dose-only effect, or another doubt; inactive = no such curve, though single readings can be large or run the other way. A potency beside an inconclusive call is a rough fit, not a confirmed value.
biological target: Polyunsaturated fatty acid lipoxygenase ALOX12 (Homo sapiens) (UniProt P18054); assay: Primary qHTS assay for inhibitors of human arachidonate 12S-lipoxygenase (ALOX12): Round 2; details: purified 12hLO, xylenol orange hydroperoxide absorbance; series mostly up to 108 µM
Outline: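 Purified human 12hLO at 150 nM in 25 mM Hepes, 0.01% Triton X-100, pH 7.0, preincubated 15 min at room temperature with compound. Reaction started with 40 uM arachidonic acid, 30 min at room temperature. Hydroperoxide measured by Fe-xylenol orange, 573/405 nm absorbance ratio.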
Potency is the fitted concentration of half-maximal effect.

Sequences of proteins named here, by UniProt entry; tags and fusion partners are left off.
UniProt P18054, whole entry, looked up: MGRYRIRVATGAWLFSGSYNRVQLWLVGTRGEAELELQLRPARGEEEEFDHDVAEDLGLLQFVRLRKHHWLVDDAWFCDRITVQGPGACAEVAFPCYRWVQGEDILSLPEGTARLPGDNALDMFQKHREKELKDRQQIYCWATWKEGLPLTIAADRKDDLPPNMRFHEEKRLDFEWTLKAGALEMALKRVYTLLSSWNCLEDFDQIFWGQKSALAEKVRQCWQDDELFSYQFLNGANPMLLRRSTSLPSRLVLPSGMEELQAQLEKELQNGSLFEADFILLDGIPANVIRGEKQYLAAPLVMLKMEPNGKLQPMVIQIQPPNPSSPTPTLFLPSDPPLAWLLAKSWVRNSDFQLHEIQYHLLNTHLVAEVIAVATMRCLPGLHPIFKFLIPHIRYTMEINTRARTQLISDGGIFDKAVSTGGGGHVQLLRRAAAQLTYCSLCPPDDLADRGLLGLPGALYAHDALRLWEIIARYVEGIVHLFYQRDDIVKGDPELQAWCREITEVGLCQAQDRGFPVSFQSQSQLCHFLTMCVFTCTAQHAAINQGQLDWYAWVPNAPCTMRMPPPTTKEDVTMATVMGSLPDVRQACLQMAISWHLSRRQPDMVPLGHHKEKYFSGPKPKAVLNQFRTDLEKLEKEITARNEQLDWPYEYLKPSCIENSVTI

Question: For `Cc1cccc(Nc2ccccc2C(=O)OCC(=O)NCc2ccco2)c1C`, which Potency is on record?
Answer: Its Potency is inconclusive: 56.2 µM [inhibitor, partial curve, poor fit].

Question: `Cc1c(C)n(CCN(C)C)c2ncn3nc(COc4ccc(Cl)cc4)nc3c12` was tested. Which Potency did it give?
Answer: Its Potency is “inactive”.

Question: Which Potency does the source give for `c1ccc(CCN(Cc2ccccc2)Cc2cccc(OCc3ccccc3)c2)cc1` here?
Answer: Its Potency is inconclusive: 0.282 µM [inhibitor, full curve, poor fit].

Question: With `COc1ccc(O)c(C2SCc3cc(C)c(C)cc3CS2)c1` as the compound, how does the Potency read?
Answer: The Potency was inconclusive: 12.6 µM [inhibitor, full curve, poor fit].

Question: For `CC1=C(C(=O)NCc2ccc(Cl)cc2)C2(CCC(C)CC2)OC1=O` (stereo not given), which Potency is on record?
Answer: Its Potency is inconclusive: 100 µM [inhibitor, partial curve, poor fit].

Question: With `COc1ccc(/C=C/C(=O)c2ccncc2)c2ccccc12` as the compound, how does the Potency read?
Answer: The Potency was inconclusive: 25.1 µM [inhibitor, partial curve, poor fit].

Question: `Cc1ccc(S(=O)(=O)NCC(=O)OCc2cc(=O)oc3cc(C)ccc23)cc1` was tested. Which Potency did it give?
Answer: Its Potency is inconclusive: 100 µM [inhibitor, single point] and inconclusive: 100 µM [inhibitor, partial curve, poor fit].

Question: With `O=C(OC1CCOC1=O)c1cc(-c2ccc(Cl)cc2)nc2ccccc12` (stereo not given) as the compound, how does the Potency read?
Answer: Its Potency is inconclusive: 44.7 µM [inhibitor, partial curve, poor fit].

Question: For `COC(=O)c1[nH]c2ccc(F)cc2c1NC(=O)C1=COCCO1`, which Potency is on record?
Answer: Its Potency is inconclusive: 0.501 µM [inhibitor, full curve, poor fit].

Question: With `Cc1ccc(COc2ccsc2-c2n[nH]c(=S)n2C)cc1` as the compound, how does the Potency read?
Answer: Its Potency is active: 14.1 µM.

Question: With `Cc1ccc(Cl)cc1NC(=O)CC1Sc2ccccc2NC1=O` (stereo not given) as the compound, how does the Potency read?
Answer: Its Potency is inconclusive: 112 µM [inhibitor, partial curve, poor fit].

Question: How did the Potency turn out when `Cc1nnc(NC(=O)c2cc(=O)c3cc(C)c(C)cc3o2)s1` was run?
Answer: Its Potency is inconclusive: 35.5 µM [inhibitor, partial curve, poor fit].

Question: With `CCOC(=O)C1(C)NC(c2cccs2)C2C(=O)N(c3ccc(C)cc3)C(=O)C21` (stereo not given) as the compound, how does the Potency read?
Answer: Its Potency is “inactive”.

Question: For `CC(C(=O)O)N1C(=O)C2C3CC(C2C1=O)C1C(c2ccccc2)c2sc(=O)[nH]c2SC31` (stereo not given), which Potency is on record?
Answer: Its Potency is inconclusive: 112 µM [inhibitor, partial curve, poor fit].

Question: `Cc1ccc2c(COC(=O)CCCN=C3NS(=O)(=O)c4ccccc43)cc(=O)oc2c1` was tested. Which Potency did it give?
Answer: Its Potency is inconclusive: 89.1 µM [inhibitor, partial curve, poor fit].

Question: For `COc1cc(/C=C2\N=C(c3ccccc3)NNC2=O)cc(OC)c1OC`, which Potency is on record?
Answer: Its Potency is inconclusive: 112 µM [inhibitor, single point].

Question: For `COCCN1C(=O)[C@H]2CN(Cc3cccc(C)c3)C[C@H]2C1=O`, which Potency is on record?
Answer: The Potency was inconclusive: 50.1 µM [inhibitor, partial curve].

Question: With `Cc1ccc(OCC(=O)N2CCc3ccccc3C2)c(Br)c1` as the compound, how does the Potency read?
Answer: Its Potency is inconclusive: 50.1 µM [inhibitor, partial curve, poor fit].

Question: Which Potency does the source give for `Cc1nc(Nc2nc(-c3ccccc3)cc(=O)[nH]2)nc2ccccc12` here?
Answer: The Potency was inconclusive: 44.7 µM [inhibitor, partial curve, poor fit].

Question: How did the Potency turn out when `CCOc1ccc(NC(=O)CN(C)C(=O)c2ccc(OCC(=O)N3CCOCC3)c(OC)c2)cc1OCC` was run?
Answer: Its Potency is “inactive”.

Question: How did the Potency turn out when `COC(=O)c1ccc2nc(C3CCCCC3)c(Cc3ccc(C)cc3)n2c1` was run?
Answer: The Potency was inconclusive: 35.5 µM [inhibitor, partial curve, poor fit].

Question: With `CCOC(=O)c1ccc(-c2ccc(/C=N/NC(=O)CN(c3ccccc3Cl)S(C)(=O)=O)o2)cc1` as the compound, how does the Potency read?
Answer: Its Potency is “inactive”.

Question: With `COc1c(OC)c(O)c2c(=O)c(O)c(-c3ccccc3)oc2c1OC` as the compound, how does the Potency read?
Answer: The Potency was inconclusive: 28.2 µM [inhibitor, partial curve, poor fit].

Question: With `C/C(=N\NC(=S)NCc1ccccc1)c1ccc(C(C)(C)C)cc1` as the compound, how does the Potency read?
Answer: The Potency was active: 35.5 µM.

Question: `COc1ccc(F)c(CN2CCCC(O)(CN(C)Cc3ccccc3)C2=O)c1` (stereo not given) was tested. Which Potency did it give?
Answer: The Potency was “inactive”.

Question: How did the Potency turn out when `CN1CCN(c2nc(Nc3cccc(C(F)(F)F)c3)nc(N3CCOCC3)n2)CC1` was run?
Answer: Its Potency is inconclusive: 44.7 µM [inhibitor, partial curve].

Question: With `S=C(NCc1ccco1)N1CCN(c2cccc(Cl)c2)CC1` as the compound, how does the Potency read?
Answer: Its Potency is inconclusive: 50.1 µM [inhibitor, single point].

Question: With `CCOc1ccc(-n2c(=O)c3c4c(sc3n(CC(=O)NCc3ccco3)c2=O)CCC4)cc1` as the compound, how does the Potency read?
Answer: Its Potency is “inactive”.

Question: `Cc1cc(OC(C)C(=O)NCc2ccccn2)c2c(C)cc(=O)oc2c1` (stereo not given) was tested. Which Potency did it give?
Answer: Its Potency is “inactive”.

Question: `Cn1cncc1C#Cc1ccc2cc(CCO)oc(=O)c2c1` was tested. Which Potency did it give?
Answer: The Potency was “inactive”.

Question: With `Cc1ccc(CNC(=O)CCCN2C(=O)CCn3nc(-c4cccn4C)cc32)cc1` as the compound, how does the Potency read?
Answer: Its Potency is inconclusive: 56.2 µM [inhibitor, partial curve, poor fit].

Question: With `CS(=O)(=O)NCC1CCCN(c2nc3ccccc3o2)C1` (stereo not given) as the compound, how does the Potency read?
Answer: Its Potency is inconclusive: 15.8 µM [inhibitor, full curve, poor fit].

Question: For `CC(=O)N1CCCC(C(=O)NCc2nc(Cc3cccs3)no2)C1` (stereo not given), which Potency is on record?
Answer: The Potency was “inactive”.

Question: Which Potency does the source give for `COc1cc(C(=O)OCCc2cc3ccccc3c(=O)o2)cc(OC)c1OC` here?
Answer: The Potency was “inactive”.

Question: Which Potency does the source give for `C[C@H](O)c1onc(-c2ccccc2)c1C(=O)NC(C)(C)C` here?
Answer: Its Potency is inconclusive: 28.2 µM [inhibitor, full curve].

Question: For `Cc1cccc(C)c1N1CCN(C(c2ccnc3ccccc23)c2nnnn2-c2ccc3c(c2)OCCO3)CC1` (stereo not given), which Potency is on record?
Answer: The Potency was inconclusive: 126 µM [inhibitor, single point].

Question: `CC1CCCCN1S(=O)(=O)c1ccc(C(=O)Nc2nnc(-c3ccccc3Cl)o2)cc1` (stereo not given) was tested. Which Potency did it give?
Answer: The Potency was “inactive”.

Question: How did the Potency turn out when `CCOC(=O)C(C)(C)Sc1nc2c(cnn2-c2ccc(Cl)cc2)c(=O)[nH]1` was run?
Answer: Its Potency is inconclusive: 126 µM [inhibitor, single point].

Question: How did the Potency turn out when `N#CCCN1CCN(C(C(=O)O)c2c(-c3ccccc3)[nH]c3ccccc23)CC1` (stereo not given) was run?
Answer: Its Potency is “inactive”.

Question: How did the Potency turn out when `C(=N\Nc1ccc2ccccc2n1)/c1cccs1` was run?
Answer: The Potency was inconclusive: 44.7 µM [inhibitor, partial curve, poor fit].

Question: Which Potency does the source give for `COC(=O)c1ccc(OCC(=O)c2ccc3c(c2)OCCO3)cc1` here?
Answer: The Potency was inconclusive: 44.7 µM [inhibitor, partial curve, poor fit].

Question: Which Potency does the source give for `CCOC(=O)C(=CNc1ccc2c(c1)CCN2C(C)=O)C(=O)OCC` here?
Answer: Its Potency is inconclusive: 100 µM [inhibitor, single point].

Question: How did the Potency turn out when `COCc1c(C(=O)N2CCN(CCOc3ccccc3)CC2)oc2ccccc12` was run?
Answer: The Potency was “inactive”.

Question: With `COc1ccc(CC(=O)Nc2ccc(S(=O)(=O)N(C)C3CCN(C)CC3)cc2)cc1` as the compound, how does the Potency read?
Answer: The Potency was inconclusive: 89.1 µM [inhibitor, single point].

Question: With `COc1ccc(OC)c(S(=O)(=O)N[C@H]2CO[C@H]3[C@@H]2OC[C@H]3OC(=O)Nc2cccc(C(F)(F)F)c2)c1` as the compound, how does the Potency read?
Answer: Its Potency is inconclusive: 39.8 µM [inhibitor, partial curve].

Question: With `CCC1CCC(N2CCN(c3ccc([N+](=O)[O-])cc3)CC2)CC1` (stereo not given) as the compound, how does the Potency read?
Answer: Its Potency is inconclusive: 44.7 µM [inhibitor, partial curve, poor fit].

Question: For `Cc1ccc(C2CC(C(F)(F)F)n3ncc(C(=O)NCc4ccco4)c3N2)cc1` (stereo not given), which Potency is on record?
Answer: The Potency was inconclusive: 79.4 µM [inhibitor, single point].

Question: Which Potency does the source give for `COC(=O)N(C)C(C)c1cccs1` (stereo not given) here?
Answer: The Potency was “inactive”.

Question: With `CN(CC(=O)Nc1ccc(Cl)c(Cl)c1)C1CCCCC1` as the compound, how does the Potency read?
Answer: The Potency was inconclusive: 1.78 µM [inhibitor, full curve, poor fit].

Question: Which Potency does the source give for `Nc1nc(SCc2cccc(Br)c2)n[nH]1` here?
Answer: The Potency was inconclusive: 89.1 µM [inhibitor, single point].

Question: With `C=CCN1CCN(C(=O)c2ccc(-c3ccccc3)cc2)CC1` as the compound, how does the Potency read?
Answer: The Potency was “inactive”.

Question: `CN1c2ccccc2C(=O)/C(=C\Nc2ccc(F)cc2)S1(=O)=O` was tested. Which Potency did it give?
Answer: The Potency was inconclusive: 35.5 µM [inhibitor, single point].

Question: For `CN(CC(=O)Nc1c(Cl)cccc1Cl)Cc1ncc(-c2ccc(F)cc2)o1`, which Potency is on record?
Answer: The Potency was “inactive”.

Question: How did the Potency turn out when `COC(=O)c1cc(CNC(=O)c2ccccc2OC)cc(NC(=O)c2ccccc2F)c1` was run?
Answer: Its Potency is inconclusive: 112 µM [inhibitor, single point].

Question: Which Potency does the source give for `CC(C)c1noc([C@@H]2C[C@@H](O)CN2Cc2cc3ccccc3o2)n1` here?
Answer: The Potency was inconclusive: 63.1 µM [inhibitor, partial curve].

Question: Which Potency does the source give for `CN1CCN(c2ccc(CNS(=O)(=O)Cc3cccc(C(F)(F)F)c3)cc2)CC1` here?
Answer: Its Potency is inconclusive: 25.1 µM [inhibitor, single point].

Question: For `COC(=O)[C@@]1(Cc2ccccc2)[C@H]2C(=O)N(C)C(=O)[C@H]2[C@H]2CN=C(SC)N21`, which Potency is on record?
Answer: Its Potency is inconclusive: 7.08 µM [inhibitor, full curve, poor fit].

Question: For `CCOC(=O)c1ccc(NCc2ccc3c(c2)OCO3)cc1`, which Potency is on record?
Answer: Its Potency is “inactive”.

Question: `CC1=C(C(=O)Nc2ccccc2)C(c2ccc[nH]2)n2ncnc2N1` (stereo not given) was tested. Which Potency did it give?
Answer: The Potency was “inactive”.

Question: Which Potency does the source give for `CCC1CN(CC(=O)Nc2cc(C)cc(C)c2)c2ccccc2S1` (stereo not given) here?
Answer: The Potency was inconclusive: 28.2 µM [inhibitor, partial curve].

Question: With `COCCNC(=O)[C@H]1C[C@H](Oc2cccnc2)CN1S(=O)(=O)c1ccccc1` as the compound, how does the Potency read?
Answer: Its Potency is “inactive”.

Question: Which Potency does the source give for `O=[N+]([O-])c1cc(S(=O)(=O)c2ccc(N3CCCCC3)c([N+](=O)[O-])c2)ccc1N1CCCCC1` here?
Answer: The Potency was “inactive”.

Question: Which Potency does the source give for `Cc1c(-c2cc(C(=O)N[C@@H]3CCOC[C@H]3OCC(=O)O)no2)cnn1C` here?
Answer: Its Potency is inconclusive: 2.51 µM [inhibitor, full curve, poor fit].

Question: With `Cc1c(-c2ccccc2)c(=O)oc2ccc(OS(=O)(=O)c3ccc(F)cc3)cc12` as the compound, how does the Potency read?
Answer: Its Potency is inconclusive: 141 µM [inhibitor, single point].

Question: How did the Potency turn out when `CC(=O)c1cccc(NS(=O)(=O)c2ccc(-c3cnc(C4CC4)o3)cc2)c1` was run?
Answer: Its Potency is inconclusive: 100 µM [inhibitor, partial curve, poor fit].
